# Cell number after 72 h of treatment

All values are for the listed drug together with BI-78D3 (1 µM): O=c1[nH]nc(Sc2ncc([N+](=O)[O-])s2)n1-c1ccc2c(c1)OCCO2

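Human melanoma cells were exposed to a pair of drugs for 72 h in 1,536-well plates and read by automated microscopy after fixing and staining. The read-out is cell count (nuclei) in % of the DMSO control; lower values mean stronger growth inhibition or killing. Concentrations were fixed for each drug; these are the higher of two levels. These are primary screening values without error estimates.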
Only some of the drugs and lines screened are listed, without regard to their results.

Second drug | COLO 829 | WM3619 | WM451Lu | COLO 792
O=C(O)c1ccc(-c2c[nH]c3ncc(-c4ccccc4)cc23)cc1C1CCCC1 at 0.8 µM | 104 | 95.1 | 122 | 93.1
COc1cc2c(Oc3ccc4[nH]c(C)cc4c3F)ncnc2cc1OCCCN1CCCC1 at 2 µM | 115 | 91.4 | 109 | 66.1
Cc1cc(SCc2sc(-c3ccc(C(F)(F)F)c(F)c3)nc2C)ccc1OCC(=O)O at 10 µM | 130 | 123 | 115 | 146
C[C@]12O[C@H](C[C@]1(O)CO)n1c3ccccc3c3c4c(c5c6ccccc6n2c5c31)CNC4=O at 0.02 µM | 77.3 | 77.2 | 91.3 | 64.0
COc1cc([C@@H]2c3cc4c(cc3[C@@H](O[C@@H]3O[C@@H]5CO[C@@H](C)O[C@H]5[C@H](O)[C@H]3O)[C@H]3COC(=O)[C@H]23)OCO4)cc(OC)c1O at 0.1 µM | 104 | 59.5 | 76.9 | 89.9
CNC(=O)c1cc(Oc2ccc(NC(=O)Nc3ccc(Cl)c(C(F)(F)F)c3)cc2)ccn1 at 2 µM | 129 | 74.0 | 108 | 119
O=C(Nc1cccc(Cl)c1)Nc1ncc(CCNc2ncnc3ccsc23)s1 at 0.004 µM | 73.1 | 87.6 | 55.1 | 53.9
Cn1cc(C2=C(c3cn(C4CCN(Cc5ccccn5)CC4)c4ccccc34)C(=O)NC2=O)c2ccccc21 at 4 µM | 135 | 92.3 | 113 | 99.1
O=C(O)c1ccc2c(c1)nc(Nc1cccc(Cl)c1)c1ccncc12 at 2 µM | 61.2 | 55.5 | 84.9 | 82.6
Cn1nnc2c(C(N)=O)ncn2c1=O at 10 µM | 60.0 | 57.9 | 85.6 | 65.2
Nc1ccn([C@@H]2O[C@H](CO)[C@@H](O)C2(F)F)c(=O)n1 at 0.002 µM | 39.3 | 49.7 | 49.4 | 81.3
CN(c1ncccc1CNc1nc(Nc2ccc3c(c2)CC(=O)N3)ncc1C(F)(F)F)S(C)(=O)=O at 0.4 µM | 75.3 | 76.6 | 68.9 | 70.3
CC(C)(C)c1cnc(CSc2cnc(NC(=O)C3CCNCC3)s2)o1 at 0.05 µM | 110 | 67.8 | 87.1 | 89.1
CN(C)S(=O)(=O)c1ccc2c(c1)/C(=C/c1cc3c([nH]1)CCCC3)C(=O)N2 at 2 µM | 77.1 | 76.5 | 70.6 | 60.8
Cn1c(=O)n(-c2ccc(C(C)(C)C#N)cc2)c2c3cc(-c4cnc5ccccc5c4)ccc3ncc21 at 0.02 µM | 78.9 | 58.7 | 82.6 | 58.2
CCCCCCCCc1ccc(CCC(N)(CO)CO)cc1 at 10 µM | 25.3 | 2.4 | 2.8 | 4.1
Nc1ncn([C@H]2C[C@H](O)[C@@H](CO)O2)c(=O)n1 at 0.5 µM | 65.0 | 75.6 | 86.3 | 61.1
C/C(O)=C(\C#N)C(=O)Nc1cc(Br)ccc1Br at 10 µM | 120 | 96.4 | 88.8 | 118
C[C@@H]1CCN(C(=O)CC#N)C[C@@H]1N(C)c1ncnc2[nH]ccc12 at 5 µM | 97.1 | 82.5 | 69.4 | 72.7
Clc1ccc(Nc2nnc(Cc3ccncc3)c3ccccc23)cc1 at 10 µM | 62.8 | 50.8 | 76.3 | 70.3

Some entries from above, unchanged:

Second drug,COLO 829,WM3619,WM451Lu,COLO 792
C[C@]12O[C@H](C[C@]1(O)CO)n1c3ccccc3c3c4c(c5c6ccccc6n2c5c31)CNC4=O at 0.02 µM,77.3,77.2,91.3,64.0
CN(C)S(=O)(=O)c1ccc2c(c1)/C(=C/c1cc3c([nH]1)CCCC3)C(=O)N2 at 2 µM,77.1,76.5,70.6,60.8

Values as published with doi:10.1371/journal.pone.0140310, rounded.